Measurements from article PMC8851423.
These are yes or no findings as the source states them, for the method shown. For part of these data: Binding seen in cells or lysates may run through a third protein. Some entries that bind do so weakly or less than the wild type. Blank lines part the entries; values can stand above or below the substance they belong to.

Sequences of proteins named here, by UniProt entry; tags and fusion partners are left off.
UniProt P16220: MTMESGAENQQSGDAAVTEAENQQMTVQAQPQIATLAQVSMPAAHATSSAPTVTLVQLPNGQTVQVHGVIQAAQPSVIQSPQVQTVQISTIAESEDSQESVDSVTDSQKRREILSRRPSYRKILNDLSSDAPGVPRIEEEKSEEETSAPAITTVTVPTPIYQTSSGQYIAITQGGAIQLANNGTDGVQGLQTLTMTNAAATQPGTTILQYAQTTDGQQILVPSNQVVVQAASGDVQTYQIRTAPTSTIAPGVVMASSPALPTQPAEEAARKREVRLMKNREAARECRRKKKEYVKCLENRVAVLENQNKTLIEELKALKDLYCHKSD
UniProt Q12824: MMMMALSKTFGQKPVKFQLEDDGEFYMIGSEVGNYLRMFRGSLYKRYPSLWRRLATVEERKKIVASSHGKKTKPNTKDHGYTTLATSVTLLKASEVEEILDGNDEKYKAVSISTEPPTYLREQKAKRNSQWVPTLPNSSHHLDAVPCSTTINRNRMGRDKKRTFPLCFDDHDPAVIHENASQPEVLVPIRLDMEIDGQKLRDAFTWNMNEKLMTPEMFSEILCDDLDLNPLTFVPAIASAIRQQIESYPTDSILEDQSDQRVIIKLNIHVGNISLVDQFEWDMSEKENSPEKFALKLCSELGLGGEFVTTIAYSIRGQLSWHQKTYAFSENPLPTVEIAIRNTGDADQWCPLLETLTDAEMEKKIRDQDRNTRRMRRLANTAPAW

Columns and labels:
[1] = biological target: FLAG-tagged CREB1 (cAMP response element binding protein 1) (UniProt P16220); assay: co-IP; HEK293 cells co-transfected with FLAG-CREB1 and GFP-BAF47; whole cell lysates in RIPA buffer (50 mM Tris pH7.4, 150 mM NaCl, 1% Triton X-100); immunoprecipitation with anti-FLAG or anti-GFP, Protein A/G-plus agarose, Western blot
[2] = biological target: CREB1 (endogenous, endothelial cells) (human (endogenous in EAhy926 and HAEC)) (UniProt P16220); assay: Re-ChIP (sequential chromatin immunoprecipitation); EAhy926 cells and HAECs with or without oxLDL (50 ug/ml, 24 h); 1% formaldehyde cross-linked, sonicated chromatin; first immune complexes eluted (1% SDS, 100 mM NaCO3) and precipitated with a second antibody; read-out: Neo-1 promoter DNA
[3] = biological target: GFP-tagged BAF47 (Brg1-associated factor 47) (UniProt Q12824); assay: co-IP; HEK293 cells co-transfected with FLAG-CREB1 and GFP-BAF47; whole cell lysates in RIPA buffer (50 mM Tris pH7.4, 150 mM NaCl, 1% Triton X-100); immunoprecipitation with anti-FLAG or anti-GFP, Protein A/G-plus agarose, Western blot

binding [1]: binds
Substance: GFP-tagged BAF47 (Brg1-associated factor 47) (from UniProt Q12824 1-385)

binding [2]: binds
Substance: BAF47 (endogenous, endothelial cells) (from UniProt Q12824 1-385)

binding [3]: binds
Substance: FLAG-tagged CREB1 (cAMP response element binding protein 1) (from UniProt P16220 1-327)
